Source: paper PMC3272004
These are yes or no findings as the source states them, for the method shown. Binding seen in cells or lysates may run through a third protein. A result given as binding can be weak or reduced; the word gives no strength.

Chains of the proteins cited; added tags and fusions are not shown. Lines headed by an entry give the natural chain unless they say otherwise; changes in a name come on top.
UniProt P16371: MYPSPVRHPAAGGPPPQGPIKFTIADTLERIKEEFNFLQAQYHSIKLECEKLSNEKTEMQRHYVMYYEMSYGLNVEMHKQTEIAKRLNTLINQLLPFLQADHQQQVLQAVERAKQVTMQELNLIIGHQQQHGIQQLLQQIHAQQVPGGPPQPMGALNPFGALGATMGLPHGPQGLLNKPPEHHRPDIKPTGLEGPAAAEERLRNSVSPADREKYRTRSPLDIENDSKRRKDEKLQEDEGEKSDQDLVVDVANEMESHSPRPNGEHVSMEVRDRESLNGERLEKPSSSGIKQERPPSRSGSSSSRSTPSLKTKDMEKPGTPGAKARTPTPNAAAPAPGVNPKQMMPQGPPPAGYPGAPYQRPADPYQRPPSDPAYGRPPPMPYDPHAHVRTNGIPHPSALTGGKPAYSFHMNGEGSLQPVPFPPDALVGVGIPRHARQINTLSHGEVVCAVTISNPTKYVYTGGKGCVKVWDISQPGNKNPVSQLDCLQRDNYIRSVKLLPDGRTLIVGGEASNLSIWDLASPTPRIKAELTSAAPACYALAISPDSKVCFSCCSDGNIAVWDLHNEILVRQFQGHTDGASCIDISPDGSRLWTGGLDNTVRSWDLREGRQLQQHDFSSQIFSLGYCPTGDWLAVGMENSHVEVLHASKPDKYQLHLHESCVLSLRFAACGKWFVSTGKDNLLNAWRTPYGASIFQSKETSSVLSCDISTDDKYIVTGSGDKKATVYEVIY

Biological target: His-tagged Gro N-terminal region, 40D/89D double point mutant (His-GroN^40D/89D) (Drosophila) (UniProt P16371)
Test: pull-down; untagged Gro forms cotranslated in vitro with His-GroN in the presence of [35S]-methionine; His-GroN immobilised on Ni-NTA beads overnight at 4°C; 25 mM HEPES pH 7.6, 450 mM NaCl, 10 mM imidazole, 0.1% Tween 20, 1 mM DTT; SDS-PAGE and autoradiography

binding: binds
Substance: Groucho, wild-type full-length (Gro^WT), untagged (from UniProt P16371 1-730)
